Results as given in doi:10.1101/2025.09.11.675682.
Results are given in words; binding and its absence hold for the method and conditions named.

By UniProt entry, the sequences of proteins in these tests, tags left out. Where a name states a change or a piece, a line headed by the entry shows the natural chain unless it says otherwise.
UniProt Q13094: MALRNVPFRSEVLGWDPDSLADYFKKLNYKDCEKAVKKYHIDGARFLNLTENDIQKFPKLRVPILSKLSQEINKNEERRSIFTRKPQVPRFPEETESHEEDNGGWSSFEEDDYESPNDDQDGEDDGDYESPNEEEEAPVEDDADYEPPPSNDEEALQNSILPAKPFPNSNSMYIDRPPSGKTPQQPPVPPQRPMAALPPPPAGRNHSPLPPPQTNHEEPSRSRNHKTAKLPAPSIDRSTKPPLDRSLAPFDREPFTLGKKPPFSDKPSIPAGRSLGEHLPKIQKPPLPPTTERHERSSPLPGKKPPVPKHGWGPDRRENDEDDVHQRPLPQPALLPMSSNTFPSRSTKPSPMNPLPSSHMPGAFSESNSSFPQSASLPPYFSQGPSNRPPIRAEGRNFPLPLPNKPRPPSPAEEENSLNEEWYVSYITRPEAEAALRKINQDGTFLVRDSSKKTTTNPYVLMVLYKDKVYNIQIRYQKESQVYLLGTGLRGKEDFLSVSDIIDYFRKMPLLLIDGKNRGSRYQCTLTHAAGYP

Molecular target: T1, PLC-γ1 (Phospholipase C-γ1), 1–1219 (UniProt P19174)
T1 sequence: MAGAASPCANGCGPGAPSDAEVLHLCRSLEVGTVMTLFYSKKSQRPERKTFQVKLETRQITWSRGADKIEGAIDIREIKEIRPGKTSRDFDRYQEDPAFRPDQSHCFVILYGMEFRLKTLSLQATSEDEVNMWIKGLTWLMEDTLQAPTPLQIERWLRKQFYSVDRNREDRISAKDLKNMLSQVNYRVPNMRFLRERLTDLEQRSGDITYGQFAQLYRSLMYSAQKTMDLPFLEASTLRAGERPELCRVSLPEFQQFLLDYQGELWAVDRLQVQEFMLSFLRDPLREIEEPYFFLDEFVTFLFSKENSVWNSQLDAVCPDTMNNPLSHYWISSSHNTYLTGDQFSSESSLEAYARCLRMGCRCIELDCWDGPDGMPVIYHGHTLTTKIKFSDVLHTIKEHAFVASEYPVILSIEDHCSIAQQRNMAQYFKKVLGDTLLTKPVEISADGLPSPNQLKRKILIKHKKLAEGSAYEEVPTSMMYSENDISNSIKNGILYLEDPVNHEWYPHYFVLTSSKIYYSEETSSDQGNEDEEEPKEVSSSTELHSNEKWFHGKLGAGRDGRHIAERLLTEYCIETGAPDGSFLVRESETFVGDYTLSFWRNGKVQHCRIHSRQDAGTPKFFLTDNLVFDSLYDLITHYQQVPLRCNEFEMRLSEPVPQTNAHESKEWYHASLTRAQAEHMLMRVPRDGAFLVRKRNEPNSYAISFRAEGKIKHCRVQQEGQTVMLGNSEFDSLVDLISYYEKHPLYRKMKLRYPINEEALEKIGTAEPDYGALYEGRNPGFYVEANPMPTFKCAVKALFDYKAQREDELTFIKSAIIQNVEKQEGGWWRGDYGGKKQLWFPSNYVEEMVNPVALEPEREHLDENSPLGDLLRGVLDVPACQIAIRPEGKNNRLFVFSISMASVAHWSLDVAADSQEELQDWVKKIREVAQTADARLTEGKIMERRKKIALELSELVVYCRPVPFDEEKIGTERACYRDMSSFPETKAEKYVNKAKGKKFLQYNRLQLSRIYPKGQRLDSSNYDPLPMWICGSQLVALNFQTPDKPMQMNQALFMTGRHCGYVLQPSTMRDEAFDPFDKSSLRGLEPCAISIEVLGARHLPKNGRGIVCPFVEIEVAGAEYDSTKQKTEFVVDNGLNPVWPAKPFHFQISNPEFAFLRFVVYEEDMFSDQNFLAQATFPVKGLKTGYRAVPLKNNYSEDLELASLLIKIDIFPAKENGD
Experiment: ITC; VP-ITC; 5°C; 20 mM Hepes (pH 7.4), 100 mM NaCl, 0.1 mM DTT; 4 μM in the cell, 40 μM in the syringe; single binding site fit with 1:1 stoichiometry; 3 independent experiments; both purified

Substance: SLP-76^NA polypeptide (aa 103–258, no affinity mutant) (from UniProt Q13094) (domain or fragment)
- binding: no binding (tested: 4 μM in the cell, 40 μM in the syringe)
